Measured values: the supplement of paper PMC10849652
Some of the results follow.

The chains behind the UniProt entries cited, without tags or fusion partners. Where a name states a change or a piece, a line headed by the entry shows the natural chain unless it says otherwise.
UniProt P56181: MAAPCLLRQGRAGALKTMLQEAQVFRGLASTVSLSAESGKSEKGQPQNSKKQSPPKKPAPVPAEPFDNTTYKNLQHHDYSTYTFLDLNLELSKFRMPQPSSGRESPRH
UniProt P51956: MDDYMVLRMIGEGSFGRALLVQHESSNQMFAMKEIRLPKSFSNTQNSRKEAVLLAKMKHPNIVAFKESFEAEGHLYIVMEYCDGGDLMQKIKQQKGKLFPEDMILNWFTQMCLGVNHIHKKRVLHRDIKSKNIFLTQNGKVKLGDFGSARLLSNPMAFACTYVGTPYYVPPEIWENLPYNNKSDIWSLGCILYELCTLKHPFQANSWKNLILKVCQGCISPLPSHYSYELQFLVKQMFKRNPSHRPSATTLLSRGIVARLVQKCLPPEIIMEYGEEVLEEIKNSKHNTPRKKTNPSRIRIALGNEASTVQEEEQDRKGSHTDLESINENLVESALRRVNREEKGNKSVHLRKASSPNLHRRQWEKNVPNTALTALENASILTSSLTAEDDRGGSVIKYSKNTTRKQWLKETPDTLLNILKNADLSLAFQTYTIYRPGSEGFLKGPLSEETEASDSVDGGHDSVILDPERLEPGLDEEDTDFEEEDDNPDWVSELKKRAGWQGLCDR
UniProt Q8N8Q9: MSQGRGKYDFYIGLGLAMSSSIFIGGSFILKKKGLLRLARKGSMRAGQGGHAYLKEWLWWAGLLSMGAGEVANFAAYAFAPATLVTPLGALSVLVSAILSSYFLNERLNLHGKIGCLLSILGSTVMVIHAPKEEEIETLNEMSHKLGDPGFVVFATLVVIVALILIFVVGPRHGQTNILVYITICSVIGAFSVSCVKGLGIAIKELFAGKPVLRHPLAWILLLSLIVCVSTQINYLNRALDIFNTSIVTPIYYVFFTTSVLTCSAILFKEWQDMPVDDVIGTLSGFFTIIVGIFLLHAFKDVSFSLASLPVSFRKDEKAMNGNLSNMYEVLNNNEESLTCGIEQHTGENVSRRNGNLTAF
UniProt Q12986: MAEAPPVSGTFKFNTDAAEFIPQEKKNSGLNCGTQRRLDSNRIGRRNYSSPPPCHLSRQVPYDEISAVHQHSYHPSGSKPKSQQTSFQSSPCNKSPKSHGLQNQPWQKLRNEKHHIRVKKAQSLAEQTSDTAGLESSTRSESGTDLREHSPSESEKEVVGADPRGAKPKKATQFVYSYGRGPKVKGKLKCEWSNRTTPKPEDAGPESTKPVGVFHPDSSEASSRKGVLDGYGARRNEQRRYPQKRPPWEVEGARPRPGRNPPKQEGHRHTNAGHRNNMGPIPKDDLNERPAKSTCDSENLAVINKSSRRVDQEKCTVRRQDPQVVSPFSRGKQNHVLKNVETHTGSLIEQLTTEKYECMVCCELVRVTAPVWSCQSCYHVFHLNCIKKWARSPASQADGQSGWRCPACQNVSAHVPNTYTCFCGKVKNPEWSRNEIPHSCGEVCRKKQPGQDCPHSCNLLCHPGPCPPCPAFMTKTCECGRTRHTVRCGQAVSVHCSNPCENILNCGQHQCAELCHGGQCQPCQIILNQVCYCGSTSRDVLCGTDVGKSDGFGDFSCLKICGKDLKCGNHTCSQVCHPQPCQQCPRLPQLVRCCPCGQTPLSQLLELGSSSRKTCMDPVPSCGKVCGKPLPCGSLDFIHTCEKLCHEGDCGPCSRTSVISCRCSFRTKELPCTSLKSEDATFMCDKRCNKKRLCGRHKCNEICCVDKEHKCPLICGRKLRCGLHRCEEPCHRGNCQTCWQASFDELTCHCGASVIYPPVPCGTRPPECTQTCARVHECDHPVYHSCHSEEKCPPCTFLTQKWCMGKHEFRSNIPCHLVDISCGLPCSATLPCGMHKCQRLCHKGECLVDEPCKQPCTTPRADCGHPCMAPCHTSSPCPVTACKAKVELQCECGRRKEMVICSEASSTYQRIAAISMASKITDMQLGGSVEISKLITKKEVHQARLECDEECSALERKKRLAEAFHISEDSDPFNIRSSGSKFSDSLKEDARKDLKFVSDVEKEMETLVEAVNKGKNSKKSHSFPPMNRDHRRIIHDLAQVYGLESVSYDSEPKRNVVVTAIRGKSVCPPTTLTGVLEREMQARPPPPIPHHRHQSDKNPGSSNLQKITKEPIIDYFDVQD
UniProt O76041: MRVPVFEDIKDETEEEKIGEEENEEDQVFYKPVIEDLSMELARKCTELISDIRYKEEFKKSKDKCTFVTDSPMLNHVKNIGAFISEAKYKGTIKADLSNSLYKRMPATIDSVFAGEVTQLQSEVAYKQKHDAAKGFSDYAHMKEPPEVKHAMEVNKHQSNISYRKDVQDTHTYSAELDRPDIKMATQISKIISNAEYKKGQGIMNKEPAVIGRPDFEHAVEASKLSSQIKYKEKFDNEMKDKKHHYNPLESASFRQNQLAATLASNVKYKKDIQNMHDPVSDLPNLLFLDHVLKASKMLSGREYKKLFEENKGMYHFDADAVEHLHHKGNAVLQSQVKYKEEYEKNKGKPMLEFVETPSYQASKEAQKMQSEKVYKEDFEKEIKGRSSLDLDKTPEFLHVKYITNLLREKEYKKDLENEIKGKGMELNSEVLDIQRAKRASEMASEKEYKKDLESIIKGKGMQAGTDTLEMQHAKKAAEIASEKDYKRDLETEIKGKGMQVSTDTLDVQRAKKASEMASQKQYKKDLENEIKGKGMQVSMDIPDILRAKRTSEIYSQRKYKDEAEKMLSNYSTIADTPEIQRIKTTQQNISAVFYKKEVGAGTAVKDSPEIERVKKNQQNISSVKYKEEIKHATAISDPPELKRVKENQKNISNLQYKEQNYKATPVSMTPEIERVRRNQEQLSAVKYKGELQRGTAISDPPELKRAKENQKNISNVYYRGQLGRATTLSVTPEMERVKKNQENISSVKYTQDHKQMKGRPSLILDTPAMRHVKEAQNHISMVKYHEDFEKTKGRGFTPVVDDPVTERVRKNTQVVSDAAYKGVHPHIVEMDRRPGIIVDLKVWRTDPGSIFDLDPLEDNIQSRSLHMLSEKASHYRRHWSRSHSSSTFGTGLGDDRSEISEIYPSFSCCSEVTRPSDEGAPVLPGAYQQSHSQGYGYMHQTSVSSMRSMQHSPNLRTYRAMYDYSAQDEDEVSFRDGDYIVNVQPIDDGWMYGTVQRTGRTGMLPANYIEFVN
UniProt O95299, whole entry, looked up: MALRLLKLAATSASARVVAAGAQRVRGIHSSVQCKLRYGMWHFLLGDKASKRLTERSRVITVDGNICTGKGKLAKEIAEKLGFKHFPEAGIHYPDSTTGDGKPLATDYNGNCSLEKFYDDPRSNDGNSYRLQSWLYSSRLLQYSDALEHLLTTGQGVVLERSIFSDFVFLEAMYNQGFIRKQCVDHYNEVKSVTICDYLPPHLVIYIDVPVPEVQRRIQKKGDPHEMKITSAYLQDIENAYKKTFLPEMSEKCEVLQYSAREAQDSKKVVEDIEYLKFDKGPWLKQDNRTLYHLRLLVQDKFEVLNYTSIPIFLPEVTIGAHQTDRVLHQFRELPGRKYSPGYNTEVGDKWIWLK
UniProt Q8WX92, whole entry, looked up: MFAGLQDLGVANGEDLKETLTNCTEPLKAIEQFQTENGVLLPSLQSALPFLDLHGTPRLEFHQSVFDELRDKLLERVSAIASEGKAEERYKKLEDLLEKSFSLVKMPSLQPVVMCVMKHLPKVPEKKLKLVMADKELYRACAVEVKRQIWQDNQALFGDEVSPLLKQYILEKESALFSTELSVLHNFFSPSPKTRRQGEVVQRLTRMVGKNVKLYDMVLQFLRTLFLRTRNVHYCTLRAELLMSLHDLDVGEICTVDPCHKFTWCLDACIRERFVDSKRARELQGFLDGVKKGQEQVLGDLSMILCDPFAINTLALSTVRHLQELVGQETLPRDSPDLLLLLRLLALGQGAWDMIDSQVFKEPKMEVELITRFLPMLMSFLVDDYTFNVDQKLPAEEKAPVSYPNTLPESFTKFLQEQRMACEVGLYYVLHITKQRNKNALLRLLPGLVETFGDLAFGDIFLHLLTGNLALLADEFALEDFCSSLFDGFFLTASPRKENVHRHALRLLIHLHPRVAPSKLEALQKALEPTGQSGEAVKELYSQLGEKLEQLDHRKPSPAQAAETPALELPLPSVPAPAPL
UniProt P23511, whole entry, looked up: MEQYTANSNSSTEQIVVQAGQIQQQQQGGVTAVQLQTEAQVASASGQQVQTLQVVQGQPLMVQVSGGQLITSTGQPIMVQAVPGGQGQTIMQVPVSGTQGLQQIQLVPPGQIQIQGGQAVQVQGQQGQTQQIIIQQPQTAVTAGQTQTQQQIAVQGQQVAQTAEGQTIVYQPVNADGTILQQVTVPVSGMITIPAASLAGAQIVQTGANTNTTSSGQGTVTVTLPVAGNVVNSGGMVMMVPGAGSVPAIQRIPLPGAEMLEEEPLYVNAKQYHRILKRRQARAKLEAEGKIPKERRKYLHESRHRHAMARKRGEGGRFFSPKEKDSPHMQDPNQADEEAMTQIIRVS
UniProt Q9NX14, whole entry, looked up: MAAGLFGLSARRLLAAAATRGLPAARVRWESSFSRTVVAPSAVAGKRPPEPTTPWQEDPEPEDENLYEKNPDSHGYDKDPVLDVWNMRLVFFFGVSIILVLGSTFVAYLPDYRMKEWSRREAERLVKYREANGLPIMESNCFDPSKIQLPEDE
UniProt Q9UFN0: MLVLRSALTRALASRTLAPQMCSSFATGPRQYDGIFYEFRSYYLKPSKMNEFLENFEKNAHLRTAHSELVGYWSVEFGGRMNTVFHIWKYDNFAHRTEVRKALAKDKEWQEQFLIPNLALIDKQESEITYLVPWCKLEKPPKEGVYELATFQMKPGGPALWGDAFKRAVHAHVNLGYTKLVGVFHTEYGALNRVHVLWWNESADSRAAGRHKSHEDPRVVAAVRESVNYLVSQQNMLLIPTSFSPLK
UniProt Q00653: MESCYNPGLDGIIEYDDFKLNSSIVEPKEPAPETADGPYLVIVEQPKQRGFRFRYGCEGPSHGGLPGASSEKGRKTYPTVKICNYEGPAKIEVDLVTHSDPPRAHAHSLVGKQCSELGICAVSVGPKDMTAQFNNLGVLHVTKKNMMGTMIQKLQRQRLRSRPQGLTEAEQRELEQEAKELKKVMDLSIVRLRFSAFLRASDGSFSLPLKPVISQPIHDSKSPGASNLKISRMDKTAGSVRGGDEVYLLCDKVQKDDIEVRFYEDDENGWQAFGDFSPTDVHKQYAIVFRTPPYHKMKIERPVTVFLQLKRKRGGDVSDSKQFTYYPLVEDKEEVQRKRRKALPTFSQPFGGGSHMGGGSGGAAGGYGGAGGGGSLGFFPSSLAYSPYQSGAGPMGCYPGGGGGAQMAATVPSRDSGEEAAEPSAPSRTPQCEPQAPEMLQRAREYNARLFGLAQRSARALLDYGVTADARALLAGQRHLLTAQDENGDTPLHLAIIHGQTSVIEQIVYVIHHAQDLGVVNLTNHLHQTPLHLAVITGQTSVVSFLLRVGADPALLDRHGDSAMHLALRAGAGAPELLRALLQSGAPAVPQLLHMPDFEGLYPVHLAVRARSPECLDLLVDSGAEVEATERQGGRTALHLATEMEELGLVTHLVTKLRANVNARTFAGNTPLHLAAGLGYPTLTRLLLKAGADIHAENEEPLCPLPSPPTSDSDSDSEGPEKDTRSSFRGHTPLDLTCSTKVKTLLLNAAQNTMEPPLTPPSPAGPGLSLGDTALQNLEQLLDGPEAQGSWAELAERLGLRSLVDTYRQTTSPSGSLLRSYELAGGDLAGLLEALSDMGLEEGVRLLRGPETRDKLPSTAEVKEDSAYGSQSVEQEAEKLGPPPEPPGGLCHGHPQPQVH
UniProt Q9UHB4: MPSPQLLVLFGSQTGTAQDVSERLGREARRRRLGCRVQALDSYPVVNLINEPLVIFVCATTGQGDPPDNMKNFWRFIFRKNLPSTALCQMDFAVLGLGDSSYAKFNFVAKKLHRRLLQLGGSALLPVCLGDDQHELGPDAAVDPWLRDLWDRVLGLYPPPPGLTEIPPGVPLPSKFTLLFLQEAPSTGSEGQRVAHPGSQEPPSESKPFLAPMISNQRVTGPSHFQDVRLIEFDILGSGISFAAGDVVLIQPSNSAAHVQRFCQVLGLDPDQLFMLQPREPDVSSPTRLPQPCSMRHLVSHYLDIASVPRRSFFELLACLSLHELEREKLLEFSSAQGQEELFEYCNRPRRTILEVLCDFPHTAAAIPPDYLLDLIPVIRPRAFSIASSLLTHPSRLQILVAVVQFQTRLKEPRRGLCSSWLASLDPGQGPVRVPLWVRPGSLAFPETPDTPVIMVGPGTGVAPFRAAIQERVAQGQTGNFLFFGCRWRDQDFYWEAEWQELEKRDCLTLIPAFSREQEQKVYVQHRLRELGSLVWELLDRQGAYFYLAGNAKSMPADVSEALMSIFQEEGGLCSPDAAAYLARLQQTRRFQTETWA
UniProt O95139, whole entry, looked up: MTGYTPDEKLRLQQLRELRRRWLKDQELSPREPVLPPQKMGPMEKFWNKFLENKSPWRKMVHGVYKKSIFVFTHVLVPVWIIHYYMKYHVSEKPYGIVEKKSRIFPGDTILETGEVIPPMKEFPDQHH
UniProt Q9BU61: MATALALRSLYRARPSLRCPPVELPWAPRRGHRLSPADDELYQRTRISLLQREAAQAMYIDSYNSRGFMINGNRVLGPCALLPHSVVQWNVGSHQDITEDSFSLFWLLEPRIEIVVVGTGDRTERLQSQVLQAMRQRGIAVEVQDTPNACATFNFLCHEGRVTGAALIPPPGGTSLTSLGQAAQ

Assays:
Experiment in all cases: log2 fold change, soluble protein after heating vs DMSO (PISA); higher = thermal stabilisation; K562 lysate, 10 uM; active = over 0.2 and 3.5 SD of the protein, either way, in both replicates (recomputed)
[1] = compound: NCC(=O)Nc1ccc(-n2nc(C(F)(F)F)cc2-c2ccc3c(ccc4ccccc43)c2)cc1
In short: (§1)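 Quantification was by TMTpro 16plex LC-MS/MS with equalised channel sums, applied to the supernatant after 21,000xg for 90 min. Samples were crude K562 extract at 1 mg/mL protein in PBS pH 7.4 with 1 mM MgCl2, treated with 10 μM compound for 30 min, heated for 3 min across 48°C-58°C, pooled and brought to 0.5% NP-40 at 4°C. Values are log-two fold changes in thermal stability relative to solvent controls, from duplicates.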

vorinostat = compound: O=C(CCCCCCC(=O)Nc1ccccc1)NO [vorinostat]
In short: as §1

silmitasertib = compound: O=C(O)c1ccc2c(c1)nc(Nc1cccc(Cl)c1)c1ccncc12 [silmitasertib]
In short: as §1

[2] = compound: O=C1NC(=O)C(c2cnc3ccccn23)=C1c1cn2c3c(cc(F)cc13)CN(C(=O)N1CCCCC1)CC2
In short: as §1

entospletinib = compound: c1cn2cc(-c3ccc4cn[nH]c4c3)nc(Nc3ccc(N4CCOCC4)cc3)c2n1 [entospletinib]
In short: as §1

Target	log2 fold change [1]	log2 fold change (vorinostat)	log2 fold change (silmitasertib)	log2 fold change [2]	log2 fold change (entospletinib)
NDUFA3 (UniProt O95167)	inactive: -0.017	inactive: 0.121	inactive: 0.033	inactive: 0.014	inactive: 0.009
NELFCD (UniProt Q8IXH7)	inactive: 0.023	active: -0.322	inactive: 0.049	inactive: -0.005	inactive: 0.032
NDUFAB1 (UniProt O14561)	inactive: -0.038	inactive: 0.226	inactive: -0.139	inactive: 0	inactive: -0.12
NDUFA2 (UniProt O43678)	inactive: -0.025	inactive: 0.092	inactive: -0.006	inactive: 0.01	inactive: -0.007
NDUFV3 isoform 2 (UniProt P56181)	inactive: 0.022	inactive: 0.094	inactive: -0.02	inactive: 0.015	inactive: -0.006
NEK3 (UniProt P51956)	inactive: -0.03	inactive: -0.045	inactive: 0.042	inactive: 0.033	inactive: 0.04
NIPA2 (UniProt Q8N8Q9)	inactive: -0.045	inactive: 0.128	inactive: -0.114	inactive: -0.042	inactive: 0.114
NLK (UniProt Q9UBE8)	inactive: 0.277	inactive: -0.161	inactive: -0.061	–	–
NLRP2 (UniProt Q9NX02)	inactive: -0.031	active: -0.528	inactive: 0.062	inactive: -0.015	inactive: 0.011
NEU1 (UniProt Q99519)	inactive: -0.029	inactive: 0.079	inactive: 0.007	inactive: -0.006	inactive: -0.025
NFX1 (UniProt Q12986)	inactive: 0.039	inactive: -0.023	inactive: -0.024	inactive: -0.018	inactive: -0.083
NEBL isoform 2 (UniProt O76041)	inactive: -0.019	inactive: 0.146	inactive: -0.019	inactive: -0.016	inactive: -0.01
NDUFA10 (UniProt O95299)	inactive: -0.033	inactive: -0.099	inactive: 0.096	inactive: -0.013	inactive: -0.022
NIFK (UniProt Q9BYG3)	inactive: 0.063	inactive: 0.063	inactive: -0.001	inactive: 0.047	inactive: 0.044
NHLRC2 (UniProt Q8NBF2)	inactive: -0.001	inactive: -0.022	inactive: 0.051	inactive: -0.003	inactive: -0.004
NLE1 (UniProt Q9NVX2)	inactive: 0.003	inactive: 0.105	inactive: -0.005	inactive: -0.043	inactive: 0.017
NELFB isoform 2 (UniProt Q8WX92)	inactive: 0.028	inactive: -0.109	inactive: 0.001	inactive: -0.02	inactive: 0.038
NDUFS2 (UniProt O75306)	inactive: 0.011	inactive: 0.056	inactive: -0.012	inactive: 0	inactive: -0.009
NDUFA13 (UniProt Q9P0J0)	inactive: -0.007	inactive: 0.087	inactive: 0.013	inactive: -0.01	inactive: 0.023
NDUFB4 (UniProt O95168)	inactive: -0.079	inactive: 0.206	inactive: 0.018	inactive: 0	inactive: 0.004
NELFA (UniProt Q9H3P2)	inactive: -0.057	active: -0.309	inactive: -0.004	inactive: 0.008	inactive: -0.027
NFYA (UniProt P23511)	inactive: -0.007	inactive: 0.099	inactive: -0.033	inactive: -0.053	inactive: -0.012
NEU3 isoform 2 (UniProt Q9UQ49)	inactive: -0.009	inactive: -0.137	inactive: 0.089	inactive: -0.077	inactive: 0.005
NDUFB11 isoform 2 (UniProt Q9NX14)	inactive: -0.047	inactive: 0.165	inactive: -0.019	inactive: 0.022	inactive: -0.1
NDUFC2 (UniProt O95298)	inactive: -0.073	inactive: 0.13	inactive: -0.023	inactive: -0.029	inactive: -0.005
NELFE (UniProt P18615)	inactive: 0.039	inactive: 0.018	inactive: -0.007	inactive: -0.021	inactive: -0.016
NDUFAF5 (UniProt Q5TEU4)	inactive: -0.023	inactive: 0.065	inactive: 0.002	inactive: -0.006	inactive: -0.046

Reformatted bar-delimited: part of the list above.
Target | log2 fold change [1] | log2 fold change (vorinostat) | log2 fold change (silmitasertib) | log2 fold change [2] | log2 fold change (entospletinib)
NEK3 (UniProt P51956) | inactive: -0.03 | inactive: -0.045 | inactive: 0.042 | inactive: 0.033 | inactive: 0.04
NFX1 (UniProt Q12986) | inactive: 0.039 | inactive: -0.023 | inactive: -0.024 | inactive: -0.018 | inactive: -0.083

Next part:

Target	log2 fold change [1]	log2 fold change (vorinostat)	log2 fold change (silmitasertib)	log2 fold change [2]	log2 fold change (entospletinib)
NDUFV2 (UniProt P19404)	inactive: -0.001	inactive: 0.095	inactive: 0.022	inactive: -0.013	inactive: -0.027
NEURL4 (UniProt Q96JN8)	inactive: 0.025	inactive: 0.079	inactive: 0.16	inactive: -0.316	inactive: -0.119
NDST1 (UniProt P52848)	inactive: -0.036	inactive: 0.202	inactive: -0.055	inactive: 0	inactive: -0.118
NEMF (UniProt O60524)	inactive: -0.036	inactive: 0.052	inactive: 0.012	inactive: -0.01	inactive: 0.031
NIPSNAP3A (UniProt Q9UFN0)	inactive: 0.03	inactive: 0.136	inactive: -0.061	inactive: 0.017	inactive: -0.021
NFKBIE (UniProt O00221)	inactive: -0.08	inactive: 0.005	inactive: 0.114	inactive: -0.017	inactive: -0.036
NDUFAF1 (UniProt Q9Y375)	inactive: -0.016	inactive: 0.158	inactive: 0.003	inactive: 0	inactive: 0.02
NEBL (UniProt O76041)	inactive: 0.056	inactive: 0.207	inactive: 0.052	inactive: -0.026	inactive: -0.018
NDUFS3 (UniProt O75489)	inactive: 0.019	inactive: 0.088	inactive: 0.019	inactive: 0.042	inactive: 0.057
NFKBIB (UniProt Q15653)	inactive: -0.052	inactive: -0.204	inactive: 0.04	inactive: 0.024	inactive: 0
NDUFAF2 (UniProt Q8N183)	inactive: 0.037	inactive: 0.171	inactive: -0.011	inactive: -0.03	inactive: 0.003
NEDD4L (UniProt Q96PU5)	inactive: -0.02	inactive: -0.077	inactive: 0.054	inactive: -0.008	inactive: 0.016
NFKB2 (UniProt Q00653)	inactive: -0.041	inactive: -0.145	inactive: -0.006	inactive: 0.022	inactive: 0.025
NF1 (UniProt P21359)	inactive: 0.03	active: -0.634	inactive: 0.037	inactive: 0.01	inactive: 0.025
NDUFS1 isoform 2 (UniProt P28331)	inactive: -0.006	inactive: 0.118	inactive: 0.032	inactive: -0.052	inactive: -0.014
NDUFB5 (UniProt O43674)	inactive: -0.01	inactive: 0.151	inactive: 0.059	inactive: -0.02	inactive: -0.017
NDUFS8 (UniProt O00217)	inactive: -0.042	inactive: 0.124	inactive: 0.02	inactive: 0.009	inactive: -0.023
NDEL1 isoform 2 (UniProt Q9GZM8)	inactive: 0.002	inactive: 0.012	inactive: -0.09	inactive: -0.014	inactive: 0.021
NEK1 isoform 3 (UniProt Q96PY6)	inactive: 0.003	inactive: 0.066	inactive: -0.052	inactive: 0.013	inactive: -0.065
NDOR1 isoform 2 (UniProt Q9UHB4)	inactive: 0.005	inactive: -0.026	inactive: -0.017	inactive: 0.024	inactive: -0.071
NDUFB6 (UniProt O95139)	inactive: -0.026	inactive: 0.085	inactive: -0.027	inactive: 0.014	inactive: -0.073
NFXL1 (UniProt Q6ZNB6)	inactive: -0.016	inactive: -0.102	inactive: 0.01	inactive: 0.031	inactive: -0.027
NIBAN1 (UniProt Q9BZQ8)	inactive: -0.006	inactive: -0.187	inactive: 0.03	inactive: -0.003	inactive: 0.014
NDUFAF3 (UniProt Q9BU61)	inactive: -0.105	inactive: 0.063	inactive: 0.011	inactive: 0.005	inactive: -0.043
NDUFA7 (UniProt O95182)	inactive: -0.049	inactive: 0.051	inactive: 0.013	inactive: 0.015	inactive: 0.019
NEFH (UniProt P12036)	inactive: 0.024	inactive: 0.029	inactive: -0.005	inactive: 0.014	inactive: 0.011
